# Data: the supplement of paper PMC8728848
# The list shows a part of the results.
# B1: R2-fiber (Pseudomonas aeruginosa), Q9S576 (protein)
# chain: HHHHHHKVAKDLVVSLAYQVRTEDGVLVDESPVSAPLDYLHGHGSLISGLETALEGHEVGDKFDVAVGANDAYGQYDENLVQRVPKDVFMGVDELQVGMRFLAETDQGPVPVEITAVEDDHVVVDGNHMLAGQNLKFNVEVVAIREATEEELAHGHVHGAHDHHHDHDHDGCCGGHGHDHGHEHGGEGCCGGKGNGGCGCHENLYFQGVTAGMALAATDIPGLDASKLVSGVLAEQRLPVFARGLATAVSNSSDPNTATVPLMLTNHANGPVAGRYFYIQSMFYPDQNGNASQIATSYNATSEMYVRVSYAANPSIREWLPWQRCDIGGSFTKEADGELPGGVNLDSMVTSGWWSQSFTAQAASGANYPIVRAGLLHVYAASSNFIYQTYQAYDGESFYFRCRHSNTWFPWRRMWHGGDFNPSDYLLKSGFYWNALPGKPATFPPSAHNHDVGQLTSGILPLARGGVGSNTAAGARSTIGAGVPATASLGASGWWRDNDTGLIRQWGQVTCPADADASITFPIPFPTLCLGGYANQTSAFHPGTDASTGFRGATTTTAVIRNGYFAQAVLSWEAFGR
# Tests used:
# Assay in all cases: glycan array binding signal (z-score within array); higher = stronger binding
# Settings in all cases: glycan notation: IUPAC condensed, linker removed
# [1] = target: Neu5Ac(a2-3)Gal(b1-4)GlcNAc(b1-3)[Neu5Ac(a2-3)Gal(b1-4)GlcNAc(b1-6)]GalNAc
# Summary of the method: (§1)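 The Consortium for Functional Glycomics database supplied 3228 glycan arrays, of which those lacking an available protein sequence were dropped. The binding signal, a within-array Z-score, was averaged across arrays of the same protein sequence and across linkers. Negative scores can be read as non-binding.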
# [2] = target: Neu5Ac(a2-3)Gal(b1-4)GlcNAc(b1-6)GalNAc
# Summary of the method: as §1
# [3] = target: Neu5Ac(a2-3)Gal(b1-4)GlcNAc(b1-6)[Gal(b1-3)]GalNAc
# Summary of the method: as §1
# [4] = target: Neu5Ac(a2-3)Gal(b1-4)GlcNAc(b1-6)[Neu5Ac(a2-3)Gal(b1-3)]GalNAc
# Summary of the method: as §1
# [5] = target: Neu5Ac(a2-3)Gal(b1-4)GlcNAc6S
# Summary of the method: as §1
# [6] = target: Neu5Ac(a2-3)Gal(b1-4)[Fuc(a1-3)]GlcNAc
# Summary of the method: as §1
# [7] = target: Neu5Ac(a2-3)Gal(b1-4)[Fuc(a1-3)]GlcNAc(b1-2)Man
# Summary of the method: as §1
# [8] = target: Neu5Ac(a2-3)Gal(b1-4)[Fuc(a1-3)]GlcNAc(b1-3)Gal
# Summary of the method: as §1
# [9] = target: Neu5Ac(a2-3)Gal(b1-4)[Fuc(a1-3)]GlcNAc(b1-3)Gal(b1-4)GlcNAc
# Summary of the method: as §1
# [10] = target: Neu5Ac(a2-3)Gal(b1-4)[Fuc(a1-3)]GlcNAc(b1-3)Gal(b1-4)[Fuc(a1-3)]GlcNAc(b1-3)Gal(b1-4)[Fuc(a1-3)]GlcNAc
# Summary of the method: as §1
# [11] = target: Neu5Ac(a2-3)Gal(b1-4)[Fuc(a1-3)]GlcNAc(b1-3)GalNAc
# Summary of the method: as §1
# [12] = target: Neu5Ac(a2-3)Gal(b1-4)[Fuc(a1-3)]GlcNAc(b1-6)[Gal(b1-3)]GalNAc
# Summary of the method: as §1
# [13] = target: Neu5Ac(a2-3)Gal(b1-4)[Fuc(a1-3)]GlcNAc(b1-6)[Neu5Ac(a2-3)Gal(b1-3)]GalNAc
# Summary of the method: as §1
# [14] = target: Neu5Ac(a2-3)Gal(b1-4)[Fuc(a1-3)]GlcNAc6S
# Summary of the method: as §1
# [15] = target: Neu5Ac(a2-3)Gal6S(b1-4)GlcNAc
# Summary of the method: as §1
# [16] = target: Neu5Ac(a2-3)Gal6S(b1-4)[Fuc(a1-3)]GlcNAc
# Summary of the method: as §1
# Neu5Ac(a2-3)GalNAc = target: Neu5Ac(a2-3)GalNAc
# Summary of the method: as §1
# [17] = target: Neu5Ac(a2-3)GalNAc(b1-4)GlcNAc
# Summary of the method: as §1
# [18] = target: Neu5Ac(a2-3)[GalNAc(b1-4)]Gal(b1-4)Glc
# Summary of the method: as §1
# [19] = target: Neu5Ac(a2-3)[GalNAc(b1-4)]Gal(b1-4)GlcNAc
# Summary of the method: as §1
# [20] = target: Neu5Ac(a2-3)[GalNAc(b1-4)]Gal(b1-4)GlcNAc(b1-3)GalNAc
# Summary of the method: as §1
# [21] = target: Neu5Ac(a2-3)[Neu5Ac(a2-6)]GalNAc
# Summary of the method: as §1
# Neu5Ac(a2-6)Gal = target: Neu5Ac(a2-6)Gal
# Summary of the method: as §1
# [22] = target: Neu5Ac(a2-6)Gal(b1-3)GlcNAc(b1-3)[Gal(b1-4)GlcNAc(b1-6)]Gal(b1-4)Glc
# Summary of the method: as §1
# Neu5Ac(a2-6)Gal(b1-4)Glc = target: Neu5Ac(a2-6)Gal(b1-4)Glc
# Summary of the method: as §1
# [23] = target: Neu5Ac(a2-6)Gal(b1-4)GlcNAc
# Summary of the method: as §1
# [24] = target: Neu5Ac(a2-6)Gal(b1-4)GlcNAc(b1-2)Man
# Summary of the method: as §1
# [25] = target: Neu5Ac(a2-6)Gal(b1-4)GlcNAc(b1-2)Man(a1-3)Man(b1-4)GlcNAc(b1-4)GlcNAc
# Summary of the method: as §1
# [26] = target: Neu5Ac(a2-6)Gal(b1-4)GlcNAc(b1-2)Man(a1-3)[Gal(b1-4)GlcNAc(b1-2)Man(a1-6)]Man(b1-4)GlcNAc(b1-4)GlcNAc
# Summary of the method: as §1
# [27] = target: Neu5Ac(a2-6)Gal(b1-4)GlcNAc(b1-2)Man(a1-3)[GlcNAc(b1-2)Man(a1-6)]Man(b1-4)GlcNAc(b1-4)GlcNAc
# Summary of the method: as §1
binder,measurement,setting,value
B1,glycan array binding signal (z-score),[1],-0.426
same,glycan array binding signal (z-score),[2],-0.724
same,glycan array binding signal (z-score),[3],-0.238
same,glycan array binding signal (z-score),[4],-0.216
same,glycan array binding signal (z-score),[5],-0.184
same,glycan array binding signal (z-score),[6],-0.243
same,glycan array binding signal (z-score),[7],-0.811
same,glycan array binding signal (z-score),[8],-0.045
same,glycan array binding signal (z-score),[9],-0.382
same,glycan array binding signal (z-score),[10],0.84
same,glycan array binding signal (z-score),[11],-0.101
same,glycan array binding signal (z-score),[12],0.506
same,glycan array binding signal (z-score),[13],0.198
same,glycan array binding signal (z-score),[14],-0.616
same,glycan array binding signal (z-score),[15],-0.035
same,glycan array binding signal (z-score),[16],5.49
same,glycan array binding signal (z-score),Neu5Ac(a2-3)GalNAc,-0.904
same,glycan array binding signal (z-score),[17],-0.428
same,glycan array binding signal (z-score),[18],0.331
same,glycan array binding signal (z-score),[19],-0.151
same,glycan array binding signal (z-score),[20],1.44
same,glycan array binding signal (z-score),[21],-0.101
same,glycan array binding signal (z-score),Neu5Ac(a2-6)Gal,-0.313
same,glycan array binding signal (z-score),[22],-0.585
same,glycan array binding signal (z-score),Neu5Ac(a2-6)Gal(b1-4)Glc,-0.256
same,glycan array binding signal (z-score),[23],3
same,glycan array binding signal (z-score),[24],-0.232
same,glycan array binding signal (z-score),[25],0.972
same,glycan array binding signal (z-score),[26],-0.353
same,glycan array binding signal (z-score),[27],0.025

# 2 entries from above, with bars between the fields.
binder | measurement | setting | value
B1 | glycan array binding signal (z-score) | [24] | -0.232
same | glycan array binding signal (z-score) | [25] | 0.972
